# Assay results: the supplement of paper PMC8728848
# The other results are listed elsewhere or left out.
# What was measured:
# Assay in all cases: glycan array binding signal (z-score within array); higher = stronger binding
# Details in all cases: glycan notation: IUPAC condensed, linker removed
# [1] = target: Neu5Ac(a2-3)Gal(b1-4)GlcNAc(b1-2)Man(a1-3)[Neu5Ac(a2-6)Gal(b1-4)GlcNAc(b1-2)Man(a1-6)]Man(b1-4)GlcNAc(b1-4)GlcNAc
# Procedure, shortened: (§1)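 The Consortium for Functional Glycomics database supplied 3228 glycan arrays, of which those lacking an available protein sequence were dropped. The binding signal, a within-array Z-score, was averaged across arrays of the same protein sequence and across linkers. Negative scores can be read as non-binding.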
# [2] = target: Neu5Ac(a2-3)Gal(b1-4)GlcNAc(b1-2)[Neu5Ac(a2-3)Gal(b1-4)GlcNAc(b1-4)]Man(a1-3)[GlcNAc(b1-4)][Neu5Ac(a2-3)Gal(b1-4)GlcNAc(b1-2)[Neu5Ac(a2-3)Gal(b1-4)GlcNAc(b1-6)]Man(a1-6)]Man(b1-4)GlcNAc(b1-4)GlcNAc
# Procedure, shortened: as §1
# [3] = target: Neu5Ac(a2-3)Gal(b1-4)GlcNAc(b1-2)[Neu5Ac(a2-3)Gal(b1-4)GlcNAc(b1-4)]Man(a1-3)[GlcNAc(b1-4)][Neu5Ac(a2-3)Gal(b1-4)GlcNAc(b1-4)Man(a1-6)]Man(b1-4)GlcNAc(b1-4)GlcNAc
# Procedure, shortened: as §1
# [4] = target: Neu5Ac(a2-3)Gal(b1-4)GlcNAc(b1-2)[Neu5Ac(a2-3)Gal(b1-4)GlcNAc(b1-6)]Man(a1-6)[Neu5Ac(a2-3)Gal(b1-4)GlcNAc(b1-2)Man(a1-3)][GlcNAc(b1-4)]Man(b1-4)GlcNAc(b1-4)GlcNAc
# Procedure, shortened: as §1
# [5] = target: Neu5Ac(a2-3)Gal(b1-4)GlcNAc(b1-3)Gal
# Procedure, shortened: as §1
# [6] = target: Neu5Ac(a2-3)Gal(b1-4)GlcNAc(b1-3)Gal(b1-3)GlcNAc
# Procedure, shortened: as §1
# [7] = target: Neu5Ac(a2-3)Gal(b1-4)GlcNAc(b1-3)Gal(b1-4)GlcNAc
# Procedure, shortened: as §1
# [8] = target: Neu5Ac(a2-3)Gal(b1-4)GlcNAc(b1-3)Gal(b1-4)GlcNAc(b1-2)Man(a1-3)[Neu5Ac(a2-3)Gal(b1-4)GlcNAc(b1-3)Gal(b1-4)GlcNAc(b1-2)Man(a1-6)]Man(b1-4)GlcNAc(b1-4)GlcNAc
# Procedure, shortened: as §1
# [9] = target: Neu5Ac(a2-3)Gal(b1-4)GlcNAc(b1-3)Gal(b1-4)GlcNAc(b1-3)Gal(b1-4)GlcNAc
# Procedure, shortened: as §1
# [10] = target: Neu5Ac(a2-3)Gal(b1-4)GlcNAc(b1-3)Gal(b1-4)GlcNAc(b1-3)Gal(b1-4)GlcNAc(b1-2)Man(a1-3)[Neu5Ac(a2-3)Gal(b1-4)GlcNAc(b1-3)Gal(b1-4)GlcNAc(b1-3)Gal(b1-4)GlcNAc(b1-2)Man(a1-6)]GalNAc
# Procedure, shortened: as §1
# [11] = target: Neu5Ac(a2-3)Gal(b1-4)GlcNAc(b1-3)Gal(b1-4)GlcNAc(b1-3)GalNAc
# Procedure, shortened: as §1
# [12] = target: Neu5Ac(a2-3)Gal(b1-4)GlcNAc(b1-3)Gal(b1-4)GlcNAc(b1-3)[Neu5Ac(a2-3)Gal(b1-4)GlcNAc(b1-3)Gal(b1-4)GlcNAc(b1-6)]GalNAc
# Procedure, shortened: as §1
# [13] = target: Neu5Ac(a2-3)Gal(b1-4)GlcNAc(b1-3)Gal(b1-4)GlcNAc(b1-6)[Gal(b1-3)]GalNAc
# Procedure, shortened: as §1
# [14] = target: Neu5Ac(a2-3)Gal(b1-4)GlcNAc(b1-3)Gal(b1-4)[Fuc(a1-3)]GlcNAc
# Procedure, shortened: as §1
# [15] = target: Neu5Ac(a2-3)Gal(b1-4)GlcNAc(b1-3)GalNAc
# Procedure, shortened: as §1
# [16] = target: Neu5Ac(a2-3)Gal(b1-4)GlcNAc(b1-3)[Neu5Ac(a2-3)Gal(b1-4)GlcNAc(b1-6)]GalNAc
# Procedure, shortened: as §1
# [17] = target: Neu5Ac(a2-3)Gal(b1-4)GlcNAc(b1-6)GalNAc
# Procedure, shortened: as §1
# [18] = target: Neu5Ac(a2-3)Gal(b1-4)GlcNAc(b1-6)[Gal(b1-3)]GalNAc
# Procedure, shortened: as §1
# [19] = target: Neu5Ac(a2-3)Gal(b1-4)GlcNAc(b1-6)[Neu5Ac(a2-3)Gal(b1-3)]GalNAc
# Procedure, shortened: as §1
# [20] = target: Neu5Ac(a2-3)Gal(b1-4)GlcNAc6S
# Procedure, shortened: as §1
# [21] = target: Neu5Ac(a2-3)Gal(b1-4)[Fuc(a1-3)]GlcNAc
# Procedure, shortened: as §1
# [22] = target: Neu5Ac(a2-3)Gal(b1-4)[Fuc(a1-3)]GlcNAc(b1-2)Man
# Procedure, shortened: as §1
# [23] = target: Neu5Ac(a2-3)Gal(b1-4)[Fuc(a1-3)]GlcNAc(b1-3)Gal
# Procedure, shortened: as §1
# [24] = target: Neu5Ac(a2-3)Gal(b1-4)[Fuc(a1-3)]GlcNAc(b1-3)Gal(b1-4)GlcNAc
# Procedure, shortened: as §1
# [25] = target: Neu5Ac(a2-3)Gal(b1-4)[Fuc(a1-3)]GlcNAc(b1-3)Gal(b1-4)[Fuc(a1-3)]GlcNAc(b1-3)Gal(b1-4)[Fuc(a1-3)]GlcNAc
# Procedure, shortened: as §1
# [26] = target: Neu5Ac(a2-3)Gal(b1-4)[Fuc(a1-3)]GlcNAc(b1-3)GalNAc
# Procedure, shortened: as §1
# [27] = target: Neu5Ac(a2-3)Gal(b1-4)[Fuc(a1-3)]GlcNAc(b1-6)[Gal(b1-3)]GalNAc
# Procedure, shortened: as §1
# [28] = target: Neu5Ac(a2-3)Gal(b1-4)[Fuc(a1-3)]GlcNAc(b1-6)[Neu5Ac(a2-3)Gal(b1-3)]GalNAc
# Procedure, shortened: as §1
# [29] = target: Neu5Ac(a2-3)Gal(b1-4)[Fuc(a1-3)]GlcNAc6S
# Procedure, shortened: as §1
# [30] = target: Neu5Ac(a2-3)Gal6S(b1-4)GlcNAc
# Procedure, shortened: as §1
# [31] = target: Neu5Ac(a2-3)Gal6S(b1-4)[Fuc(a1-3)]GlcNAc
# Procedure, shortened: as §1
# [32] = target: Neu5Ac(a2-3)GalNAc
# Procedure, shortened: as §1
# [33] = target: Neu5Ac(a2-3)GalNAc(b1-4)GlcNAc
# Procedure, shortened: as §1
# [34] = target: Neu5Ac(a2-3)[GalNAc(b1-4)]Gal(b1-4)Glc
# Procedure, shortened: as §1
# [35] = target: Neu5Ac(a2-3)[GalNAc(b1-4)]Gal(b1-4)GlcNAc
# Procedure, shortened: as §1
# [36] = target: Neu5Ac(a2-3)[GalNAc(b1-4)]Gal(b1-4)GlcNAc(b1-3)GalNAc
# Procedure, shortened: as §1
# [37] = target: Neu5Ac(a2-3)[Neu5Ac(a2-6)]GalNAc
# Procedure, shortened: as §1
binder,measurement,setting,value
"SUN4 (Saccharomyces cerevisiae), P53616 (protein) MGSSHHHHHHSSGLVPRGSHNGSIYGDLADFSGPYEKFEDGTIPCGQFPSGQGVIPISWLDEGGWSGVENTDTSTGGSCKEGSYCSYACQPGMSKTQWPSDQPSDGRSIGGLLCKDGYLYRSNTDTDYLCEWGVDAAYVVSELSNDVAICRTDYPGTENMVIPTYVQAGDSLPLTVVDQDTYYTWQGLKTSAQYYVNNAGISVEDACVWGSSSSGVGNWAPLNFGAGSSDGVAYLSLIPNPNNGNALNFNVKIVAADDSSTVNGECIYENGSFSGGSDGCTVSVTAGKAKFVLYN",glycan array binding signal (z-score),[1],-0.338
same,glycan array binding signal (z-score),[2],0.48
same,glycan array binding signal (z-score),[3],-0.636
same,glycan array binding signal (z-score),[4],-0.391
same,glycan array binding signal (z-score),[5],0.136
same,glycan array binding signal (z-score),[6],-0.71
same,glycan array binding signal (z-score),[7],0.296
same,glycan array binding signal (z-score),[8],0.062
same,glycan array binding signal (z-score),[9],-0.165
same,glycan array binding signal (z-score),[10],0.416
same,glycan array binding signal (z-score),[11],0.459
same,glycan array binding signal (z-score),[12],-0.307
same,glycan array binding signal (z-score),[13],-1.04
same,glycan array binding signal (z-score),[14],-0.248
same,glycan array binding signal (z-score),[15],0.2
same,glycan array binding signal (z-score),[16],0.422
same,glycan array binding signal (z-score),[17],-0.402
same,glycan array binding signal (z-score),[18],0.062
same,glycan array binding signal (z-score),[19],0.667
same,glycan array binding signal (z-score),[20],-1.19
same,glycan array binding signal (z-score),[21],-0.661
same,glycan array binding signal (z-score),[22],1.38
same,glycan array binding signal (z-score),[23],-0.808
same,glycan array binding signal (z-score),[24],1.14
same,glycan array binding signal (z-score),[25],-0.761
same,glycan array binding signal (z-score),[26],1.91
same,glycan array binding signal (z-score),[27],0.276
same,glycan array binding signal (z-score),[28],1.15
same,glycan array binding signal (z-score),[29],0.712
same,glycan array binding signal (z-score),[30],-0.628
same,glycan array binding signal (z-score),[31],-0.936
same,glycan array binding signal (z-score),[32],-0.321
same,glycan array binding signal (z-score),[33],-0.371
same,glycan array binding signal (z-score),[34],0.365
same,glycan array binding signal (z-score),[35],-0.706
same,glycan array binding signal (z-score),[36],-0.441
same,glycan array binding signal (z-score),[37],0.557

# Rewritten with tabs: entries from further up
binder	measurement	setting	value
SUN4 (Saccharomyces cerevisiae), P53616 (protein) MGSSHHHHHHSSGLVPRGSHNGSIYGDLADFSGPYEKFEDGTIPCGQFPSGQGVIPISWLDEGGWSGVENTDTSTGGSCKEGSYCSYACQPGMSKTQWPSDQPSDGRSIGGLLCKDGYLYRSNTDTDYLCEWGVDAAYVVSELSNDVAICRTDYPGTENMVIPTYVQAGDSLPLTVVDQDTYYTWQGLKTSAQYYVNNAGISVEDACVWGSSSSGVGNWAPLNFGAGSSDGVAYLSLIPNPNNGNALNFNVKIVAADDSSTVNGECIYENGSFSGGSDGCTVSVTAGKAKFVLYN	glycan array binding signal (z-score)	[2]	0.48
same	glycan array binding signal (z-score)	[9]	-0.165
